# Reference: paper PMC10848721
# B1: RILPL1-GFP WT [not stated] / endogenous TMEM55B [human (endogenous in HEK293)] (parent)
# chain 1: MEEERGSALAAESALEKNVAELTVMDVYDIASLVGHEFERVIDQHGCEAIARLMPKVVRVLEILEVLVSRHHVAPELDELRLELDRLRLERMDRIEKERKHQKELELVEDVWRGEAQDLLSQIAQLQEENKQLMTNLSHKDVNFSEEEFQKHEGMSERERQVMKKLKEVVDKQRDEIRAKDRELGLKNEDVEALQQQQTRLMKINHDLRHRVTVVEAQGKALIEQKVELEADLQTKEQEMGSLRAELGKLRERLQGEHSQNGEEEPETEPVGEESISDAEKVAMDLKDPNRPRFTLQELRDVLHERNELKSKVFLLQEELAYYKSEEMEEENRIPQPPPIAHPRTSPQPESGIKRLFSFFSRDKKRLANTQRNVHIQESFGQWANTHRDDGYTEQGQEALQHL
# chain 2: MAADGERSPLLSEPIDGGAGGNGLVGPGGSGAGPGGGLTPSAPPYGAGKHAPPQAFPPFPEGHPAVLPGEDPPPYSPLTSPDSGSAPMITCRVCQSLINVEGKMHQHVVKCGVCNEATPIKNAPPGKKYVRCPCNCLLICKVTSQRIACPRPYCKRIINLGPVHPGPLSPEPQPMGVRVICGHCKNTFLWTEFTDRTLARCPHCRKVSSIGRRYPRKRCICCFLLGLLLAVTATGLAFGTWKHARRYGGIYAAWAFVILLAVLCLGRALYWACMKVSHPVQNFS
# B2: Halo-TMEM55B [not stated] / RILPL1 (found with overexpressed TMEM55B or TMEM55A) [not stated] (parent)
# chain 1: B1 chain 2
# chain 2: B1 chain 1
# Variants of: B1
# Experiment: co-immunoprecipitation (GFP IP), quantitative immunoblot (LI-COR)
# Settings: with endogenous TMEM55B [human (endogenous in HEK293)]; HEK293 cells co-transfected with FLAG-LRRK2 Y1699C and HA-Rab8A Q67L, lysed 24 hours after transfection; parent: 700; read off a plot
row,Variant,response
1,chain 1 A399L,130
2,chain 1 E394K,110
3,chain 1 E398K,130
4,chain 1 G391A,640
5,chain 1 G396A,610
6,chain 1 H402A,690
7,chain 1 L400A,270
8,chain 1 L403A,360
9,chain 1 Q395A,350

# More lines, now with the values ahead:
row,response,Variant
1,240,chain 1 Q397A
2,760,chain 1 Q401A
3,360,chain 1 T393A
4,640,chain 1 Y392A

# Variants of: B2
# Experiment: co-immunoprecipitation (Halo IP), quantitative immunoblot (LI-COR)
# Settings: HEK293 cells co-transfected with FLAG-LRRK2 Y1699C and HA-Rab8A Q67L, lysed 24 hours after transfection, parent: 370, read off a plot
row,Variant,response
1,chain 1 A117S,60
2,chain 1 K141E,260
3,chain 1 V108T,120
